{
  "source": "the supplement of paper PMC7580552",
  "note": "Structures can show the parent of a compound that is named as a salt. The list shows a part of the results. Part of the spread comes from offsets between plates or batches.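 The strain is a K-12 laboratory model grown without shaking in 96-well plates, and biofilm is the crystal violet stain retained on the wells, read as absorbance. Drugs were picked as candidate specific biofilm blockers when they cut staining strongly but slowed free-floating growth by less than 70%.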",
  "data": [
    {"test_system": "Escherichia coli W3110", "assay": "biofilm formation (crystal violet staining) relative to untreated control; higher = more biofilm", "conditions": "10 µM; 20-24 h; 30 °C; TB", "units": {"biofilm formation": "%"}, "values": [
      {"smiles": "CC(N)C(O)c1ccccc1", "note": "(stereo not drawn) [Phenylpropanolamine hydrochloride]", "biofilm formation": 64},
      {"smiles": "O=c1[nH]oc2c1CCNC2", "note": "[THIP Hydrochloride]", "biofilm formation": 87},
      {"smiles": "CC[C@@H](CO)NC(=O)[C@@H]1C=C2c3cccc4[nH]cc(c34)C[C@H]2N(C)C1", "note": "[Methylergometrine maleate]", "biofilm formation": 68},
      {"smiles": "C[C@@H]1C[C@@H]([C@H](O)CC2CC(=O)NC(=O)C2)C(=O)[C@@H](C)C1", "note": "[Cycloheximide]", "biofilm formation": 98},
      {"smiles": "Cc1cc(C(C#N)c2ccc(Cl)cc2)c(Cl)cc1NC(=O)c1cc(I)cc(I)c1O", "note": "(stereo not drawn) [Closantel]", "biofilm formation": 84},
      {"smiles": "CC(NC(C)(C)C)C(=O)c1cccc(Cl)c1", "note": "(stereo not drawn) [Bupropion hydrochloride]", "biofilm formation": 60},
      {"smiles": "CN1CCC2(C)c3cc(O)ccc3N(C)C12", "note": "(single isomer, unassigned; (-)) [(-)-Eseroline fumarate salt]", "biofilm formation": 76},
      {"smiles": "O=C1CC[C@@]2(O)[C@H]3Cc4ccc(O)c5c4[C@@]2(CCN3CC2CC2)[C@H]1O5", "note": "[Naltrexone hydrochloride dihydrate]", "biofilm formation": 57},
      {"smiles": "CN1CCN(C(=O)O[C@H]2c3nccnc3C(=O)N2c2ccc(Cl)cn2)CC1", "note": "[Eszopiclone]", "biofilm formation": 57},
      {"smiles": "CN[C@@H]1[C@@H](O)[C@@H](O[C@@H]2[C@@H](O)[C@H](O[C@H]3O[C@H](CN)CC[C@H]3N)[C@@H](N)C[C@H]2N)OC[C@]1(C)O.CN[C@@H]1[C@@H](O)[C@@H](O[C@@H]2[C@@H](O)[C@H](O[C@H]3O[C@H]([C@@H](C)N)CC[C@H]3N)[C@@H](N)C[C@H]2N)OC[C@]1(C)O.CN[C@@H]1[C@@H](O)[C@@H](O[C@@H]2[C@@H](O)[C@H](O[C@H]3O[C@H]([C@@H](C)NC)CC[C@H]3N)[C@@H](N)C[C@H]2N)OC[C@]1(C)O", "note": "[Gentamicine sulfate]", "biofilm formation": 32},
      {"smiles": "NCC(CC(=O)O)c1ccc(Cl)cc1", "note": "(racemic) [Baclofen (R,S)]", "biofilm formation": 58},
      {"smiles": "N[C@@H]1C[C@H]1c1ccccc1", "note": "[Tranylcypromine hydrochloride]", "biofilm formation": 70},
      {"smiles": "C#C[C@]1(O)CC[C@H]2[C@@H]3CCC4=CC(=O)CCC4=C3C=C[C@@]21CC", "note": "[Gestrinone]", "biofilm formation": 95},
      {"smiles": "CN1[C@@H]2C[C@@H](OC(=O)[C@H](CO)c3ccccc3)C[C@H]1[C@@H]1O[C@@H]12", "note": "[Scopolamine hydrochloride]", "biofilm formation": 89},
      {"smiles": "C[C@]12CCC(=O)C=C1C=C[C@@H]1[C@@H]2CC[C@@]2(C)[C@H]1CC[C@@]2(O)CCC(=O)O", "note": "[Canrenoic acid potassium salt]", "biofilm formation": 85},
      {"smiles": "CCCC(C)C1(CC)C(=O)NC(=O)NC1=O", "note": "(stereo not drawn) [Pentobarbital]", "biofilm formation": 97},
      {"smiles": "C=CCN1CC[C@]23c4c5ccc(O)c4O[C@H]2C(=O)CC[C@@]3(O)[C@H]1C5", "note": "[Naloxone hydrochloride]", "biofilm formation": 111},
      {"smiles": "CC(=O)O[C@H]1C[C@@H]2CC[C@@H]3[C@H](CC[C@@]4(C)[C@H]3C[C@H]([N+]3(C)CCCCC3)[C@@H]4OC(C)=O)[C@@]2(C)C[C@@H]1[N+]1(C)CCCCC1", "note": "[Pancuronium bromide]", "biofilm formation": 67},
      {"smiles": "c1ccc2c(c1)Nc1ccccc1S2", "note": "[Phenothiazine]", "biofilm formation": 61},
      {"smiles": "COc1ccc(CN2CCNCC2)c(OC)c1OC", "note": "[Trimetazidine dihydrochloride]", "biofilm formation": 76},
      {"smiles": "C[C@]12CC[C@H]3[C@@H](CCC4=CC(=O)CC[C@@H]43)[C@@H]1CC[C@@H]2O", "note": "[Nandrolone]", "biofilm formation": 64},
      {"smiles": "CN1[C@@H]2CC[C@H]1C[C@@H](OC(=O)[C@H](CO)c1ccccc1)C2", "note": "[Hyoscyamine (L)]", "biofilm formation": 95},
      {"smiles": "CN[C@@H]1C[C@@H](c2ccc(Cl)c(Cl)c2)c2ccccc21", "note": "[Indatraline hydrochloride]", "biofilm formation": 94},
      {"smiles": "O=[N+]([O-])O[C@@H]1CO[C@H]2[C@@H]1OC[C@@H]2O", "note": "[Isosorbide mononitrate]", "biofilm formation": 72},
      {"smiles": "C[C@H](N)[C@H](O)c1ccc(O)c(O)c1", "note": "[Levonordefrin]", "biofilm formation": 81},
      {"smiles": "CC(C)N(CCC(C(N)=O)(c1ccccc1)c1ccccn1)C(C)C", "note": "(stereo not drawn) [Disopyramide]", "biofilm formation": 55},
      {"smiles": "C1CCc2nnnn2CC1", "note": "[Pentylenetetrazole]", "biofilm formation": 75},
      {"smiles": "CC(Cc1ccc(O)cc1)NCC(O)c1cc(O)cc(O)c1", "note": "(stereo not drawn) [Fenoterol hydrobromide]", "biofilm formation": 60},
      {"smiles": "C=CC[C@]1(O)CC[C@H]2[C@@H]3CCC4=CC(=O)CCC4=C3C=C[C@@]21C", "note": "[Altrenogest]", "biofilm formation": 78},
      {"smiles": "C[C@]12CC[C@@H](O)C[C@@H]1CC[C@@H]1[C@@H]2CC[C@]2(C)C(=O)CC[C@@H]12", "note": "[Androsterone]", "biofilm formation": 86},
      {"smiles": "CNCC(O)c1ccc(O)cc1", "note": "(racemic) [(+,-)-Synephrine]", "biofilm formation": 64},
      {"smiles": "COc1ccc2c(c1)[C@]13CCCC[C@@H]1[C@H](C2)N(C)CC3", "note": "[Dextromethorphan hydrobromide monohydrate]", "biofilm formation": 60},
      {"smiles": "S=C(NC1CCCCC1)N1CCC(c2cnc[nH]2)CC1", "note": "[Thioperamide maleate]", "biofilm formation": 55},
      {"smiles": "C#C[C@]1(O)CC[C@H]2[C@@H]3CCC4=CC(=O)CC[C@]4(C)[C@H]3CC[C@@]21C", "note": "[Ethisterone]", "biofilm formation": 71},
      {"smiles": "CC(C)[N+](C)(CCC(C(N)=O)(c1ccccc1)c1ccccc1)C(C)C", "note": "[Isopropamide iodide]", "biofilm formation": 83},
      {"smiles": "O=C([O-])c1ccccc1-c1c2cc(Br)c(=O)cc-2oc2[c]([Hg+])c([O-])c(Br)cc12.[Na+].[Na+].[OH-]", "note": "[Merbromin]", "biofilm formation": 53},
      {"smiles": "O=c1[nH]c2ccccc2n1CCCN1CCC(n2c(=O)[nH]c3cc(Cl)ccc32)CC1", "note": "[Domperidone]", "biofilm formation": 90},
      {"smiles": "CC(C)CC(N(C)C)C1(c2ccc(Cl)cc2)CCC1", "note": "(stereo not drawn) [Sibutramine hydrochloride]", "biofilm formation": 81},
      {"smiles": "COc1ccc(C(=O)N2CCCC2=O)cc1", "note": "[Aniracetam]", "biofilm formation": 76},
      {"smiles": "CC[C@@H](C(N)=O)N1CCCC1=O", "note": "[Levetiracetam]", "biofilm formation": 96},
      {"smiles": "C[N+]1(C)CCOC(O)(c2ccc(-c3ccc(C4(O)C[N+](C)(C)CCO4)cc3)cc2)C1", "note": "(stereo not drawn) [Hemicholinium bromide]", "biofilm formation": 76},
      {"smiles": "C[C@]12CCC(=O)C=C1CC[C@@H]1[C@@H]2C(=O)C[C@]2(C)C(=O)CC[C@@H]12", "note": "[Adrenosterone]", "biofilm formation": 57},
      {"smiles": "CC[C@H](C)[C@H]1O[C@]2(C=C[C@@H]1C)C[C@@H]1C[C@@H](C/C=C(\\C)[C@@H](O[C@H]3C[C@H](OC)[C@@H](O[C@H]4C[C@H](OC)[C@@H](O)[C@H](C)O4)[C@H](C)O3)[C@@H](C)/C=C/C=C3\\CO[C@@H]4[C@H](O)C(C)=C[C@@H](C(=O)O1)[C@]34O)O2.CO[C@H]1C[C@H](O[C@H]2[C@H](C)O[C@@H](O[C@@H]3/C(C)=C/C[C@@H]4C[C@@H](C[C@]5(C=C[C@H](C)[C@@H](C(C)C)O5)O4)OC(=O)[C@@H]4C=C(C)[C@@H](O)[C@H]5OC/C(=C\\C=C\\[C@@H]3C)[C@]54O)C[C@@H]2OC)O[C@@H](C)[C@@H]1O", "note": "[Avermectin B1]", "biofilm formation": 50},
      {"smiles": "CCN[C@@H](C)Cc1cccc(C(F)(F)F)c1", "note": "[Dexfenfluramine hydrochloride]", "biofilm formation": 95},
      {"smiles": "CC(=O)OC1CN2CCC1CC2", "note": "(stereo not drawn) [Aceclidine Hydrochloride]", "biofilm formation": 91},
      {"smiles": "CC(CCc1ccccc1)NC(C)C(O)c1ccc(O)cc1", "note": "(stereo not drawn) [Nylidrin]", "biofilm formation": 77},
      {"smiles": "COc1cccc(C2(O)CCCCC2CN(C)C)c1", "note": "(stereo not drawn) [Tramadol hydrochloride]", "biofilm formation": 45},
      {"smiles": "C[N+]1(C)[C@@H]2CC[C@H]1C[C@@H](OC(=O)C(CO)c1ccccc1)C2", "note": "(stereo partly drawn) [Methylatropine nitrate]", "biofilm formation": 68},
      {"smiles": "CN1C[C@H](C(=O)N[C@]2(C)O[C@@]3(O)[C@@H]4CCCN4C(=O)[C@H](Cc4ccccc4)N3C2=O)C[C@@H]2c3cccc4[nH]cc(c34)C[C@H]21", "note": "[Dihydroergotamine tartrate]", "biofilm formation": 65},
      {"smiles": "C[N+](C)(C)CCCCCCCCCC[N+](C)(C)C", "note": "[Decamethonium bromide]", "biofilm formation": 86},
      {"smiles": "CCC(=O)O[C@@](Cc1ccccc1)(c1ccccc1)[C@@H](C)CN(C)C", "note": "[Levopropoxyphene napsylate]", "biofilm formation": 60},
      {"smiles": "CC[C@@]1(O)C(=O)OCc2c1cc1n(c2=O)Cc2cc3ccccc3nc2-1", "note": "[Camptothecine (S,+)]", "biofilm formation": 86},
      {"smiles": "COc1ccc(CCN)cc1OC", "note": "[Homoveratrylamine]", "biofilm formation": 74},
      {"smiles": "CCCN1C[C@H](CSC)C[C@@H]2c3cccc4[nH]cc(c34)C[C@H]21", "note": "[Pergolide mesylate]", "biofilm formation": 53},
      {"smiles": "CCN(CC)C(C)C(=O)c1ccccc1", "note": "(stereo not drawn) [Amfepramone hydrochloride]", "biofilm formation": 50},
      {"smiles": "C[N+]1([O-])[C@@H]2C[C@@H](OC(=O)[C@H](CO)c3ccccc3)C[C@H]1[C@@H]1O[C@@H]12", "note": "(stereo partly drawn) [Scopolamin-N-oxide hydrobromide]", "biofilm formation": 89},
      {"smiles": "Oc1cc(Cl)ccc1Oc1ccc(Cl)cc1Cl", "note": "[Triclosan]", "biofilm formation": 18},
      {"smiles": "CC(=O)O[C@H]1C[C@H](O[C@H]2[C@@H](O)C[C@H](O[C@H]3[C@@H](O)C[C@H](O[C@H]4CC[C@@]5(C)[C@H](CC[C@@H]6[C@@H]5C[C@@H](O)[C@]5(C)[C@@H](C7=CC(=O)OC7)CC[C@]65O)C4)O[C@@H]3C)O[C@@H]2C)O[C@H](C)[C@H]1O[C@@H]1O[C@H](CO)[C@@H](O)[C@H](O)[C@H]1O", "note": "[Lanatoside C]", "biofilm formation": 68},
      {"smiles": "COc1ccc(CCN2CCC(Nc3nc4ccccc4n3Cc3ccc(F)cc3)CC2)cc1", "note": "[Astemizole]", "biofilm formation": 52},
      {"smiles": "Fc1ccc(C(OCCN2CCN(CCCc3ccccc3)CC2)c2ccc(F)cc2)cc1", "biofilm formation": 77},
      {"smiles": "CC(C)(C)NCC(O)c1cc(Cl)c(N)c(Cl)c1", "note": "(stereo not drawn) [Clenbuterol hydrochloride]", "biofilm formation": 57},
      {"smiles": "CCC1(CC)C(=O)C=CNC1=O", "note": "[Pyrithyldione]", "biofilm formation": 75},
      {"smiles": "COc1ccc(Cc2nccc3cc(OC)c(OC)cc23)cc1OC", "note": "[Papaverine hydrochloride]", "biofilm formation": 60}
    ]}
  ]
}
